Measurements reported in paper PMC6831569.
These are yes or no findings as the source states them, for the method shown.

Molecular target: T1, E. coli acyl carrier protein, single domain (ACP1) (E. coli), P0A6A8
T1 chain: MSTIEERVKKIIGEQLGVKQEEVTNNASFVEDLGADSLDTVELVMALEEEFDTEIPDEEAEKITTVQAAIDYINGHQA
Experiment: SAXS; proteins in 20 mM NaH2PO4, 50 mM NaCl, pH 7.8, 1-3 mg/mL, flowed through a capillary at the LiX beamline; models by DAMMIF; both purified
Settings: remark: other sources report otherwise

B1: E. coli acyl carrier protein, single domain (ACP1), P0A6A8 1-78 (protein)
chain: MSTIEERVKKIIGEQLGVKQEEVTNNASFVEDLGADSLDTVELVMALEEEFDTEIPDEEAEKITTVQAAIDYINGHQA
With B1 the binding was “no binding (tested: 1–3 mg/mL)”.
